These results are taken from article PMC11862893.

Protein sequences, listed by entry. Tags and fused reporters are not part of them. Lines headed by an entry give the natural chain unless they say otherwise; changes in a name come on top. Residues count along the entry.
UniProt P18084, residues 24-799: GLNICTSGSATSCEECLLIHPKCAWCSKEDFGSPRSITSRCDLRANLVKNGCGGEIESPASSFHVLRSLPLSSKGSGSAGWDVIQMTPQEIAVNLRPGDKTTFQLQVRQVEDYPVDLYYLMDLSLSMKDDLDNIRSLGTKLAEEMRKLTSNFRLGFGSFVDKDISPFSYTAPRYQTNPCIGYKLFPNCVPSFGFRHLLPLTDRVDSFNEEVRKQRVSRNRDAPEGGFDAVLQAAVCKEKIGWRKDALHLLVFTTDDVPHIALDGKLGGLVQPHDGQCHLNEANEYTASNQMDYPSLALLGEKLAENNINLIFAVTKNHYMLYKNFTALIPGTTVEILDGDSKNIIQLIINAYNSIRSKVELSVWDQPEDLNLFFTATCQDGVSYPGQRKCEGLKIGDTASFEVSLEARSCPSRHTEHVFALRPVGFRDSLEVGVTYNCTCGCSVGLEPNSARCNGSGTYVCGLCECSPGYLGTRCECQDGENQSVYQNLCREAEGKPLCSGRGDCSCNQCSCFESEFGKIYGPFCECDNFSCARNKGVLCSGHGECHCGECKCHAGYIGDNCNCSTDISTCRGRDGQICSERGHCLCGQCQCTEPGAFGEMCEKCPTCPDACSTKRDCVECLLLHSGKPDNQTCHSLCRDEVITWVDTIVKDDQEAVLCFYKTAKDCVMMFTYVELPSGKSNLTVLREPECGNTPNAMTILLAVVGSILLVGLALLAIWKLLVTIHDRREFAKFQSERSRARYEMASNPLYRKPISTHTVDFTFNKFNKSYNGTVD
UniProt Q8NAU1: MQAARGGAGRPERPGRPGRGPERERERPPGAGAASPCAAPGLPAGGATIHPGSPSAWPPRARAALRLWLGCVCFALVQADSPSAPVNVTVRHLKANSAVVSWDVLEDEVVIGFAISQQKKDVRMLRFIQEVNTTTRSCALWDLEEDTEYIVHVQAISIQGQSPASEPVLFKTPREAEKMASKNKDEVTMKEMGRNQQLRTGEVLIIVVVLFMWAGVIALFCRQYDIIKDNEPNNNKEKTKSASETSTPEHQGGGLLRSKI

The target of this test is integrin β5/ITGB5 (human (endogenous in HK-2)) (UniProt P18084). The experiment in a line: co-IP; HK-2 cells (TECs) treated with recombinant irisin, lysed in modified RIPA buffer; lysate with 4 µg anti-integrin αV or anti-integrin β5 antibody and protein A/G-agarose beads overnight at 4°C, five washes; immunoblot for irisin/FNDC5, integrin αV and integrin β5; IgG control; only the binder purified. A general note: A western blot detects proteins with antibodies after separation by electrophoresis.

No constants are given. Whether binding was seen depends on the method and setting. Binding seen in cells or lysates may run through a third protein. Binding can be weak; no strength is given.

On to irisin (from UniProt Q8NAU1) (ligand), for which the binding entry is “binds”.
